From the supplement of paper PMC3334620
Whole data set: some 33,000 sequences, median “E-score (-0.5 to 0.5)” near -8e-05, cut for the highest 2% near 0.23. The list shows a part of the results.

target: T1, Nrg2 (UniProt P38082); test: PBM E-score (8-mer binding enrichment) (E-score (-0.5 to 0.5)); higher = stronger / more preferred TF binding; conditions: protein concentration: 100 nM; construct: GST-full length
T1 sequence: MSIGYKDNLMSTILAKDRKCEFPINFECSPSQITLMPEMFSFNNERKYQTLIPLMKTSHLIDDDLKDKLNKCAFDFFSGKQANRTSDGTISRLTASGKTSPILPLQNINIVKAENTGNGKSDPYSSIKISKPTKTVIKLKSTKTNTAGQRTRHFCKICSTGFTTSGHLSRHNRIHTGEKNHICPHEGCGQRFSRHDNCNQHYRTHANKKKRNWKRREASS
Procedure, shortened: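 Yeast transcription factors, full-length or as DNA-binding domains, were expressed with a GST tag using PURExpress in vitro transcription/translation. At about 100-200 nM they were applied to universal all-10-mer Agilent arrays, double-stranded by primer extension on fresh or once-stripped slides. Fluorescent anti-GST detected bound protein, and masliner normalised the scans. E-scores for ungapped eight-base words, pooled with reverse complements, came from the Universal PBM Analysis Suite.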

Sequence	PBM E-score
TAAGTCCA	-0.00502
ACACAAGT	0.0773
GACGCCCC	-0.0205
CCAGATGC	-0.215
ATTCTCTA	0.0337
CCAAAGAC	-0.119
ATAACCAG	0.139
ATCGCCAG	-0.0475
AATGAGAT	0.171
AAGCGTAG	-0.0861
GCTAGACC	-0.264
ATGCAGGA	-0.0413
GTTACGTA	-0.287
CATAGAAA	0.175
AACGATGT	0.125
CAGGCATG	0.0164
GCTCTGGA	0.186
AGCTCCCT	-0.228
AGCGATCC	-0.129
CAGCGACG	-0.0524
AGGAGACG	-0.185
GCGGGATA	0.0702
CGCAAGAC	-0.0982
ATACATAA	0.0727
GCCATATA	0.102

Sequence	PBM E-score
CCACACAG	0.133
GGTAAATA	-0.0476
CCAATTCA	0.147
CTTAAGTA	0.0538
CATGTGCA	-0.227
AGCATGGC	-0.114
AGTTACCA	0.138
CCTGTACA	0.0705
ACGGAGGG	0.00822
CAATATTC	0.0479
CTCATTTA	0.0983
ATGCGGGG	-0.167
CCAGGAAC	-0.0968
CAGGATAA	0.0945
AGGTCCAA	-0.0549
AACGGATT	0.148
GCAATGGC	-0.17
TCAAGGCA	-0.129
CCTCGGAG	-0.1
AGCCAGAA	-0.0741
AACTGAAG	0.173
AGACAGTC	-0.193
ACGGTGCA	-0.143
ACTGGGCG	-0.228
CTCGGGAC	-0.0991

Sequence	PBM E-score
TACTGTGA	0.121
GGGACACC	-0.00517
ACGTTGTA	-0.0794
CAAGTGCC	-0.083
CCGGACCG	-0.116
TACAAAGA	0.0477
ACCGATAG	0.0925
AGCAATCC	-0.18
CCGGCGGA	0.104
CATCAGAG	0.0544
GCTTGAAC	0.113
GATGCGGA	-0.141
CGTCCGCC	-0.116
ATAATACC	0.171
GTCTCTCA	-0.0103
CCAGATCA	0.0769
GGGTGCAC	0.101
CCTGGAAC	-0.00717
AGGTCAAC	-0.0898
GCTAGAAC	-0.155
ATCGTCGA	0.00274
CCTGGCCA	0.124
AAGGATGG	-0.186
ATCGACCC	0.132
GGCTGTAC	-0.264

Sequence	PBM E-score
GGGCTGCA	0.0573
GGTAATGA	0.0524
CAAATTAG	0.158
AAATGTTA	-0.0387
AAGAGGGC	-0.0181
ACTGTCCC	0.11
TAGTCGCA	0.0306
CGAATGCG	0.121
CTCAGCCA	0.0142
CACACCCG	-0.0461
GCCAAAAC	0.0379
TAATAAAA	0.201
CAGGGCCA	-0.0826
CTGATTTC	0.107
ACGATCCT	-0.0869
AACGCTAT	-0.0353
AGCACGAG	0.00933
GGTATCAA	0.102
ATGTCGCG	0.047
AGGGATCC	0.0843
CGAGAACG	0.058
GCTGACCA	0.108
ACTTGTTC	-0.129
GCGAGACC	-0.0404
AATGAATT	0.147

Sequence	PBM E-score
GAAGAACC	-0.184
CCTCCCGC	0.0411
ACAGGACC	0.00619
GTTGGGGA	0.0557
AGTGGGTA	0.0744
AGACCGAT	-0.0473
CACATGGG	0.0939
AGCATCCC	-0.152
ACTACAAC	0.0872
TATGGGAA	0.0283
AAAAACGA	0.0943
CACGCAGA	0.0609
TCTCCGCA	-0.185
CAGGTACC	-0.179
CCTCCTCG	-0.109
GAACGGGC	-0.242
GAAGCGTC	-0.0163
AGTCTGCG	-0.214
CCCGACAC	-0.178
ATCCCATA	-0.0872
CAAGTTGG	0.225
CATGGTCC	0.0356
ATACTGCG	0.0423
AGTCACAA	0.0698
GCAAGCCC	0.0658

Sequence	PBM E-score
GTATGAGA	0.133
ATAGCAAA	-0.0613
CATGCGGC	-0.119
ATGAGGAA	-0.0003
AAGCGCGG	0.0909
CCAAGCGA	-0.0864
CACTCTCC	0.0146
ACTGGTGA	-0.145
CCCCCCCA	-0.452
GATGCATA	0.113
CCTTAATA	0.19
GGTACAGA	0.0161
CAAGATAG	0.15
GCGATTAC	-0.0166
CATCCTGC	-0.164
CCACTCAC	0.0481
GACCGCGA	0.121
ATTTTTGC	0.051
GCGTGAGA	0.297
ATTGTCGG	0.247
AACCTTTC	-0.0385
CGGAAAAG	-0.0153
AAGAGAGT	-0.186
CCACAACC	0.104
CTAGAGCC	-0.114

A second format for part of the listing above:
Sequence | PBM E-score
GCGTGAGA | 0.297
ATTGTCGG | 0.247

More records

Sequence	PBM E-score
AACCAGCA	-0.0198
CTATGCAC	-0.0708
TGAGCCAA	-0.0409
GACACACC	0.0354
GATGCGCC	0.0405
AAGAATTG	0.204
CAACTGGA	0.0171
TAGCCATA	-0.118
ATGGGAGC	-0.0437
ACGCTAGC	-0.277
AGAATTAC	0.0665
CCAGACCA	0.0135
GAATGTCA	-0.0564
CTCACACA	0.104
GCTAGAAA	0.112
CCATCCCA	-0.112
AATGTGTC	0.104
TGACACAA	0.146
CCCTTAGA	0.0891
CGTTCTCA	-0.0327
GGTTCGAC	0.0637
CAACCATC	-0.196
AACGGGCC	-0.0959
CAGAGAGC	-0.182
ACTACGCA	-0.0904

Sequence	PBM E-score
AGTGCATA	-0.134
ATCTCCCC	-0.0893
ACAAATTA	0.134
ATGGGTCA	-0.0805
AATGAAAC	0.116
AACGCGGG	0.209
CACCGAGG	-0.196
GATCAAGA	-0.0644
CATCAGCC	0.0269
ACCCTGGG	0.328
ACCTCCTG	-0.231
AAACTCGG	0.149
CCAGCCAG	-0.13
AGATATTA	-0.0063
TACCTTCA	-0.0237
AGACGCCA	-0.111
GCGATCCA	0.226
CGACGCCC	0.0822
ACCTGGGG	-0.265
CCGCTTAA	0.0585
AGGCTATA	-0.18
GGACTGGA	-0.113
TAAGAGTA	0.0104
CCAGAGGC	-0.141
CTGCATTA	-0.0698

Sequence	PBM E-score
CATGATCA	0.117
ATTTACAG	0.0132
AAGTGTCT	0.138
AAAGAGTC	-0.0807
GCACCGCA	-0.0696
ACAGATTC	0.0398
GTACATAA	-0.124
AGGTGAAG	0.0768
TGTCGACA	-0.135
AAGGAATT	-0.0857
ATCGGCAA	-0.0754
ACTGCAGC	-0.021
ACCGCCAC	-0.117
GCCGCCCC	-0.0098
CTGCTGCC	-0.149
ATCTCTTA	0.0974
GGTAGACA	-0.0266
ATGTGCAC	0.0387
AGAGTCCC	-0.122
AAGCAGCT	0.0174
ACGAACGG	0.0256
CAAGCGAG	0.0589
CATCCCCA	0.0686
GCATAGAA	0.0602
AATAGAGA	-0.0214

Copied from the list.
Under PBM E-score, TGTCGACA reads -0.135
Under PBM E-score, AAGTGTCT reads 0.138
Under PBM E-score, AATAGAGA reads -0.0214
Under PBM E-score, ATCGGCAA reads -0.0754
Under PBM E-score, CATCCCCA reads 0.0686

Going on with the list:

Sequence	PBM E-score
CATTAATA	0.155
ACGTCTCG	-0.0367
GTGGAGTA	0.0386
ACCCAGTA	-0.0366
AACCGTGG	-0.16
CCGCGCGC	0.236
AAGAGGCT	-0.243
ACATCTTC	-0.00782
GGTCGGCA	-0.049
TCCCTAGA	0.0823
GATCGCGC	0.0895
CGTTCATA	-0.0309
CAACCTGA	-0.0742
CATGCCGC	0.155
CACGATAA	0.106
GAGTTTGA	0.0996
ACCGTTAA	-0.00716
CATATACG	0.00262
ACCTGGCC	0.177
ACGGAAAC	-0.0771
CCTGGGCG	-0.0539
GGAGCTCC	-0.0329
AACAAGGA	0.175
CGAGTGCC	-0.134
ATTTATCG	0.0781

Sequence	PBM E-score
CCTACCAG	-0.121
GCATACTA	0.0455
CCTAGCTA	-0.0696
CACATTTA	-0.0384
CAGAAAGA	0.0955
CCGGGTCA	-0.156
TGAAATCA	0.183
ACTTGAAA	-0.108
CCCATTCA	0.199
ACCGATGA	-0.157
ATACAACC	-0.00323
CGTTTGGC	-0.123
CACGTAGA	0.115
ATGGCCGC	-0.107
AGGTTGTG	-0.0889
CGACTAAC	0.0392
GAACCCCA	0.26
CGGTACAG	0.00173
CCGATCTC	-0.0618
AGTGAATC	0.0226
AAGGACCT	0.0061
CGGTTAAG	-0.139
GAATCCCC	-0.0968
CACATCCG	0.113
GCAAGAGC	0.103

Sequence	PBM E-score
CGATGACG	-0.277
ACTCAGTC	-0.0974
GCCAGTCA	-0.116
GCCCTCTA	-0.222
AGCATAAT	0.132
ACGCTCAG	-0.148
GCAGGGCA	-0.0314
CAGTTACA	0.0391
AAAACATG	0.034
AGCTGATC	0.201
GCGATTCA	0.0781
CTCTCGAC	-0.215
AGGGACCG	0.231
AGATATCG	0.0444
AGTAGTAA	0.0492
CGACGGGA	0.015
CTCTTGAA	-0.0353
CACTGTGA	-0.0622
AATTAGAC	0.119
ATCCGGCA	-0.0964
ATTGGTCA	0.0477
AGGAGCGA	-0.218
ATGACTAG	-0.149
ATAGAACG	0.224
TACGCAAA	-0.171

Sequence	PBM E-score
ATCATCGA	0.0858
AGTCGAGA	0.00656
TAGTGGCA	-0.00178
AAAGGCAG	-0.0209
TCAACGGA	-0.0313
CAACGATC	-0.156
AGTTTCTA	-0.131
GCCGAGAA	0.0411
CTTTCAGC	-0.104
AACCCCTT	0.134
CGGCTATA	-0.0676
AGTGCGCC	-0.0896
TCGATTAA	0.207
CTTACCTA	0.042
GACTCGAC	-0.21
CAAGCACC	-0.0996
CTCCAAAA	-0.136
CATGGAGG	-0.188
GCCTGGTA	0.0618
ACCACACG	-0.034
CTAGCGCC	-0.231
GGTCTAAC	-0.0523
GCTGTTAC	-0.204
CACTACCA	0.105
AAGTGTGC	0.167

Sequence	PBM E-score
AACCAACT	0.136
GTAGAGAC	-0.201
ACATAACC	0.109
ATTTGGTC	0.0865
ACGCATCC	-0.233
CAGCGTGG	-0.209
CCTTTTGA	0.058
GCGTACAA	-0.147
CACGGCTC	0.0174
ACTATGCG	0.11
ATGACCTC	-0.0645
AATGGTCT	-0.037
AGCATGAA	0.155
CTCGCATC	0.0987
GGGCAAGA	0.171
ACTCAGCG	0.0845
GATTAGAA	0.0967
CTATGTTA	0.115
CTTCAGAC	-0.0785

Fetched one by one from the entries so far, 4 records:
Sequence	PBM E-score
CGACGCCC	0.0822
ATTTGGTC	0.0865
ATGAGGAA	-0.0003
TCGATTAA	0.207
